In patent US20070280957A1, “Change of the Load State of Mhc Molecules” (priority 2004, published 2007):
Some entries share one result that the patent states for a list of compounds.

Molecular target: T1, soluble HLA-DR1 (DRA1*0101, DRB1*0101) (Homo sapiens, UniProt P01903+P01911, A100R/D57E/F55L/F60I/F76Y/I96L/L162R/M171V/P40L/Q125E/R42F/V115G/Y59C)
T1 construct: shortened α- and […]-chains without the cytoplasmatic and transmembrane portion of the MHC molecule; made in house; host or cells: S2 insect cells
Test: Loading of empty soluble HLA-DR1 with biotinylated HA306-318 peptide, sandwich ELISA
Type: biochemical
Details: compared with pCP; test not specified
Protocol: In order to monitor catalysis of the loading of HLA-DR molecules by compounds of formulae I, IA, II, III and IV1 to IV3, empty, soluble DR molecules were incubated with biotinylated, high-affinity peptide, and these were then detected in a sandwich ELISA for the MHC complexes.
All the batches were then adjusted to a final volume of 10 μl with 2% BSA-PO4^3− buffer (in the case of HLA-DR1 only with PO4^3− buffer). The reaction was started by incubation at 37° C. in a thermocycler. After 40 minutes, the incubation was terminated and the loading reaction was stopped by storage on ice and addition of 50 μl of ice-cold 1% BSA-PBS.
The detection of bound peptide was carried out by means of a sandwich ELISA. […] After washing for a further eight times, 100 μl/well of fluorescence-activated solution (enhancer) were then added and the signal was measured by means of a Victor^2-multilabelcounter (Wallac Oy) at an excitation wavelength of 340 nm and an emission wavelength of 615 nm in time-resolving mode.
The following experiment was therefore carried out. […] The reaction mixtures were then incubated for 40 minutes as already described and the load was measured in a sandwich ELISA.
The resulting load was then determined in an ELISA using biotinylated peptide (see FIG. 1). […]

OCCC12CC3CC(CC(C3)C1)C2 [I 1, 2-(1-adamantyl)-ethanol]
concentrations at which an increase in the load is catalysed: above 0.025 mM
